Measured values as given in article PMC5825207.
Results are given in words; binding and its absence hold for the method and conditions named. For some of these results: Binding seen in cells or lysates may run through a third protein. Some results given as binding are weak or reduced against the parent protein; the word gives no strength. Values belong to the substance of their own block, whether it stands above or below them.

How the values were obtained:
[1] = biological target: FLAG-tagged full length SIRT6 (UniProt Q8N6T7); experiment: co-IP; FLAG-tagged SIRT6 or FLAG-tagged p53 ectopically expressed individually in HEK293 cells; FLAG immunoprecipitates blotted for the endogenous partner
FLAG-tagged p53 [2] = biological target: FLAG-tagged p53 (UniProt P04637); experiment: pull-down; in vitro binding of recombinant human SIRT6 and FLAG-p53 eluted from HEK293 cells; p53 pulled down, Western blot; both purified
FLAG-tagged p53 [3] = biological target: FLAG-tagged p53 (UniProt P04637); experiment: co-IP; FLAG-tagged SIRT6 or FLAG-tagged p53 ectopically expressed individually in HEK293 cells; FLAG immunoprecipitates blotted for the endogenous partner
[4] = biological target: p53 (endogenous, HEK293 cells) (human (endogenous in HEK293)) (UniProt P04637); experiment: co-IP; endogenous proteins in HEK293 cells without external DNA damage; reciprocal, antibodies against SIRT6 and p53 with IgG controls; lysis in RIPA buffer with 250 mM or 500 mM NaCl, agarose beads overnight at 4°C, washes with RIPA (500 mM NaCl); Western blot

binding [1]: binds
Substance: p53 (endogenous, HEK293 cells) (from UniProt P04637 1-393)

binding (FLAG-tagged p53 [2]): binds
Substance: recombinant human SIRT6 (from UniProt Q8N6T7 1-355) (enzyme)

binding (FLAG-tagged p53 [3]): binds
Substance: SIRT6 (endogenous, HEK293 cells) (from UniProt Q8N6T7 1-355) (enzyme)
binding [4]: binds
